Reference: the supplement of paper PMC6411743
± gives the standard deviation of the averaged measurements. The entries are a selection whose mix differs from that of the whole data set.

Sequences of proteins named here, by UniProt entry; tags and fusion partners are left off. A change or cut given only in a name is not applied to a line headed by its entry.
UniProt Q969T9: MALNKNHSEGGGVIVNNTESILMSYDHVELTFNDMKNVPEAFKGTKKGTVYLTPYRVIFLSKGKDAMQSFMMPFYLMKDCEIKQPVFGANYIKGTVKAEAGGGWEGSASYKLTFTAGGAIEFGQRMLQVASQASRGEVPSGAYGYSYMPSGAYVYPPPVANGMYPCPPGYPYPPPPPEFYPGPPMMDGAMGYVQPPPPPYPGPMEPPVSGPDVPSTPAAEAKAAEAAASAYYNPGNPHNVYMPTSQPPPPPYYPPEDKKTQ
UniProt Q13724: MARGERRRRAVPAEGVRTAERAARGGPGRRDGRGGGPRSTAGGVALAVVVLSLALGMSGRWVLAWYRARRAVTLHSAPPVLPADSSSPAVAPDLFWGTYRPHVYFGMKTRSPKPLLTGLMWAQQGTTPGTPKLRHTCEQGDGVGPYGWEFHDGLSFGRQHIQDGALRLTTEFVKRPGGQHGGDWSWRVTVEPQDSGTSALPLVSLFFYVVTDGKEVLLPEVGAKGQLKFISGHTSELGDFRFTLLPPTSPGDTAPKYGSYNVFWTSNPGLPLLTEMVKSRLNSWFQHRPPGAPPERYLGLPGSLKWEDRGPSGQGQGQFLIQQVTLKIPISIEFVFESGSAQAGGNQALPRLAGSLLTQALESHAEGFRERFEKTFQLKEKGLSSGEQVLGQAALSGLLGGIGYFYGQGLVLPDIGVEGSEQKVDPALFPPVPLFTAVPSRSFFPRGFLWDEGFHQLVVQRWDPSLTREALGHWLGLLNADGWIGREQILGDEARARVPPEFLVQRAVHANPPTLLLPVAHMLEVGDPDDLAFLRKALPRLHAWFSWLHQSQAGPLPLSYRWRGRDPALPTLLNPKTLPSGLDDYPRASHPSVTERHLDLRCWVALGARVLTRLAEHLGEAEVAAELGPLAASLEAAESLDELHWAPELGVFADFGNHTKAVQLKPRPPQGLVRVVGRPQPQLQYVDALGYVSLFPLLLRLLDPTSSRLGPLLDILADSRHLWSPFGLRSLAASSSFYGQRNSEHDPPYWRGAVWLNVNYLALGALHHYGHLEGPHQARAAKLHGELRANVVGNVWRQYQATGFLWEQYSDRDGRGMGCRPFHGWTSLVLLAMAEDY
UniProt Q9UHQ4: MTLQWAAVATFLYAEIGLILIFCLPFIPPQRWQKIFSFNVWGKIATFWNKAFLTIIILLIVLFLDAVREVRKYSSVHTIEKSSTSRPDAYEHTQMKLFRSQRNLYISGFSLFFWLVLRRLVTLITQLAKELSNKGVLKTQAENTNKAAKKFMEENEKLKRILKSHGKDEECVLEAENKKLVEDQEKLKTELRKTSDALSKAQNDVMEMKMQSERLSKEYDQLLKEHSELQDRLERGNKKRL
UniProt O60636: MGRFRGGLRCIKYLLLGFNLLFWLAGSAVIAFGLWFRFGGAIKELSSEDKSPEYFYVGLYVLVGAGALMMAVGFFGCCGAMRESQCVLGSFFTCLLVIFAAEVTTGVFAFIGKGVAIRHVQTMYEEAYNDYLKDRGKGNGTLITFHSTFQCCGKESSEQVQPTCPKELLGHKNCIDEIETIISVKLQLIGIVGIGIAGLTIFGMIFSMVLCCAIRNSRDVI
UniProt Q9Y5N5: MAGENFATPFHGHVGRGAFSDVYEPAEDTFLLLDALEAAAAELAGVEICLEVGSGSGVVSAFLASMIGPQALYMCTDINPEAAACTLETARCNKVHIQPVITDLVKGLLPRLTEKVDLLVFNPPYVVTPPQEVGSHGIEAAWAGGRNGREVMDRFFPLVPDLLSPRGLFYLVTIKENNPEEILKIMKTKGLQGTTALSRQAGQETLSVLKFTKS
UniProt Q9NZK5: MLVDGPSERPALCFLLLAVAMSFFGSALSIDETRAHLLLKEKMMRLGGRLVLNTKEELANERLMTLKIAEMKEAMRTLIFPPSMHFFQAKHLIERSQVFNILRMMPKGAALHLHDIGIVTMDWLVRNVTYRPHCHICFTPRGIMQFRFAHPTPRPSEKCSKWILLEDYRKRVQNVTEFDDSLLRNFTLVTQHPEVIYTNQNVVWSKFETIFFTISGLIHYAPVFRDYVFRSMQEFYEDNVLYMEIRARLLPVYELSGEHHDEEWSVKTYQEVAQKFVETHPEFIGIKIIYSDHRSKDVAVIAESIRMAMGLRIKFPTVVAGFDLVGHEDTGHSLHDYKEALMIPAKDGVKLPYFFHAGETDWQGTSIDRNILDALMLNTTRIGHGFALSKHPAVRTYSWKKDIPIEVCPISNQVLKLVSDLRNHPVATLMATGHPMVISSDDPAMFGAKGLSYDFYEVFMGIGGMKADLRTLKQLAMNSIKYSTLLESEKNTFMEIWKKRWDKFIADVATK
UniProt P63165, whole entry: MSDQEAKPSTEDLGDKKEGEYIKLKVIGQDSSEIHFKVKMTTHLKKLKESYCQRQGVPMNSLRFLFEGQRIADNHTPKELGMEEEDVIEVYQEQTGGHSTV
UniProt Q9BVT8: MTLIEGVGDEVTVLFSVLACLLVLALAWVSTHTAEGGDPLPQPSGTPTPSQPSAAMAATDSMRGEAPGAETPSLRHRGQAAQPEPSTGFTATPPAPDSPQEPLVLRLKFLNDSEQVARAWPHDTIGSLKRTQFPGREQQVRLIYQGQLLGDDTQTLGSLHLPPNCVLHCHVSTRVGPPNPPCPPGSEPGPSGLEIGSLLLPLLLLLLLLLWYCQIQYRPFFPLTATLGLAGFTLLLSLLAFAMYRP
UniProt A6NKD9: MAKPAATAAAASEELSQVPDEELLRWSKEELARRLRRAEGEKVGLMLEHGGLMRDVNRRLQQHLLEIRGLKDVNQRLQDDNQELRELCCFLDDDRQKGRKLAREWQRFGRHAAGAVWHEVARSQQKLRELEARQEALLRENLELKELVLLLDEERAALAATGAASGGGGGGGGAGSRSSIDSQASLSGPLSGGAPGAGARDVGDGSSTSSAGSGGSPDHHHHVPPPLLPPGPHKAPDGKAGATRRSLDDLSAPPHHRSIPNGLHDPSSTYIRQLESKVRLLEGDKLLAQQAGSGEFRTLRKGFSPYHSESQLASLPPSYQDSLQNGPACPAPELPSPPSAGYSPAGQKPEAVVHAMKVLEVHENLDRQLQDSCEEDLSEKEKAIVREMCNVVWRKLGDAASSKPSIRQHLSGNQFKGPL
UniProt Q96MF7: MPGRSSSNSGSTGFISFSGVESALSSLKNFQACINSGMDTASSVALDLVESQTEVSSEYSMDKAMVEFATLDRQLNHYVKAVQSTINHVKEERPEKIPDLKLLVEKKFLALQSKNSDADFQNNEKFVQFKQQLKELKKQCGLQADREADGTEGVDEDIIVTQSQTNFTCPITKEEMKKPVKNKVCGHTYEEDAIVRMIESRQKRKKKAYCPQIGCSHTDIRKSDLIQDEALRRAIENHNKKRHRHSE
UniProt Q9H6K4: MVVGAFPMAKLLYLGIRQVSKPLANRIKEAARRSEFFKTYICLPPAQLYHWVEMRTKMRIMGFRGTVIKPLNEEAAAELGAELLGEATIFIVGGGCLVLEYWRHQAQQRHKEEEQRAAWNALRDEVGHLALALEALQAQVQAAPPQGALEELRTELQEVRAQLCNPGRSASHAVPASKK
UniProt P13798: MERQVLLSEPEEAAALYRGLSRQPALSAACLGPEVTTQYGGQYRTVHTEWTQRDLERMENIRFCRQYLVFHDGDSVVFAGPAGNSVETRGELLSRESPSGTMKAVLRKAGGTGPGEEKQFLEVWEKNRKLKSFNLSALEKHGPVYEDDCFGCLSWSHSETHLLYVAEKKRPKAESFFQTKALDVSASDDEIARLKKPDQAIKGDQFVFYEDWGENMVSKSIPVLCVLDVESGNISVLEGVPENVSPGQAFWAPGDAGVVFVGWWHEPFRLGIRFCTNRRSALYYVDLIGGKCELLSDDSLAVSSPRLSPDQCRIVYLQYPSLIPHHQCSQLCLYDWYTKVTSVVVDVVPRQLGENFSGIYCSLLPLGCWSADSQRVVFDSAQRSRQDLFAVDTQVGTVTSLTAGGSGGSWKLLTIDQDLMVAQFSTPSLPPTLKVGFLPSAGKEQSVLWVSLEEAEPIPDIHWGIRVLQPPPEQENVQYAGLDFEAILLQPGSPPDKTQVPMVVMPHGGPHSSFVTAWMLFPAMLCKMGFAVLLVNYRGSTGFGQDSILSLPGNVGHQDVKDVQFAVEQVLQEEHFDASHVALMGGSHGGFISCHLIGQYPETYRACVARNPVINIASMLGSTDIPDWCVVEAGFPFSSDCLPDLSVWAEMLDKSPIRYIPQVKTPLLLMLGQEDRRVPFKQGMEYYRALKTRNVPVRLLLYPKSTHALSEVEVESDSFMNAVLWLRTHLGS
UniProt Q16637, whole entry, looked up: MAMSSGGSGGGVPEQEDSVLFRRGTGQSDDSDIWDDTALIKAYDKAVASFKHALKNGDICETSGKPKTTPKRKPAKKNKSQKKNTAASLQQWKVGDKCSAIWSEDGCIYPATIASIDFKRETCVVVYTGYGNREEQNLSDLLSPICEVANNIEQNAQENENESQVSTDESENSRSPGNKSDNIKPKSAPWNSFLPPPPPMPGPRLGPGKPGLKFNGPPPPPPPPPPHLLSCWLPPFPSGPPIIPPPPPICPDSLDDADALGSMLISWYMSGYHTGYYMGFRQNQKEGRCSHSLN
UniProt Q9Y2K5: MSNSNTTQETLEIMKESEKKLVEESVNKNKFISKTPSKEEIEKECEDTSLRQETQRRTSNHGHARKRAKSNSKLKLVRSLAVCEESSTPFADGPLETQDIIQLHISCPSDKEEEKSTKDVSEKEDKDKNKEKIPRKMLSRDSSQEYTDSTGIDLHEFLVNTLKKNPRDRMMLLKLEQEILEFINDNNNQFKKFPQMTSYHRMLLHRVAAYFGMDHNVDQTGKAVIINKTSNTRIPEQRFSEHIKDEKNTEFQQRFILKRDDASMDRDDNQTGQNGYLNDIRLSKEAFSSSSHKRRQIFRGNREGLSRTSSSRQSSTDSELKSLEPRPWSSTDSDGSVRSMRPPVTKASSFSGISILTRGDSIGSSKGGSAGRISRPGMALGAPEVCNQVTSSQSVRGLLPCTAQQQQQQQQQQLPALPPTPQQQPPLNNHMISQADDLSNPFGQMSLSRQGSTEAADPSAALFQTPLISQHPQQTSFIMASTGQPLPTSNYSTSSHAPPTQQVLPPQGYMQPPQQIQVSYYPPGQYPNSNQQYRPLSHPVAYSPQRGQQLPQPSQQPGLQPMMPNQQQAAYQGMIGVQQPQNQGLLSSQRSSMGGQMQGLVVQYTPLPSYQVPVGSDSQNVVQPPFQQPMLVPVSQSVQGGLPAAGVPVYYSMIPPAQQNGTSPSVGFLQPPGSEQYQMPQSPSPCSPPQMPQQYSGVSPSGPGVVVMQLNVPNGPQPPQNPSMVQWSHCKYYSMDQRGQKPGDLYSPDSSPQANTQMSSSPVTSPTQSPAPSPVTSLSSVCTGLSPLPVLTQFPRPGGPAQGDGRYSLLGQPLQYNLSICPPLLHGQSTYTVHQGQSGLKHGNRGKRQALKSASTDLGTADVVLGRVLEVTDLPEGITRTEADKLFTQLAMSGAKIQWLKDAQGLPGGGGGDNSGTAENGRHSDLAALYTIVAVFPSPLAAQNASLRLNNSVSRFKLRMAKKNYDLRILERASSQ
UniProt A4D1E9: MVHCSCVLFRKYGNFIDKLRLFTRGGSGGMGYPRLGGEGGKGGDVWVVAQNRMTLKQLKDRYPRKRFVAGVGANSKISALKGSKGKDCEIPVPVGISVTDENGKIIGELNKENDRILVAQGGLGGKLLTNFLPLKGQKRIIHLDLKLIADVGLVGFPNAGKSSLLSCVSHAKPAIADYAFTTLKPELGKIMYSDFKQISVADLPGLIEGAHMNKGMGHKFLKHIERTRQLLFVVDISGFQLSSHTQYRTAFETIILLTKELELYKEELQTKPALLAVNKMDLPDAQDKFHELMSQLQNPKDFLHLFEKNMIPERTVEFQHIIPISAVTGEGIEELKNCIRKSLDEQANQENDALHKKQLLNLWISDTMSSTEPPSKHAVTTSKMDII
UniProt A5PLN9: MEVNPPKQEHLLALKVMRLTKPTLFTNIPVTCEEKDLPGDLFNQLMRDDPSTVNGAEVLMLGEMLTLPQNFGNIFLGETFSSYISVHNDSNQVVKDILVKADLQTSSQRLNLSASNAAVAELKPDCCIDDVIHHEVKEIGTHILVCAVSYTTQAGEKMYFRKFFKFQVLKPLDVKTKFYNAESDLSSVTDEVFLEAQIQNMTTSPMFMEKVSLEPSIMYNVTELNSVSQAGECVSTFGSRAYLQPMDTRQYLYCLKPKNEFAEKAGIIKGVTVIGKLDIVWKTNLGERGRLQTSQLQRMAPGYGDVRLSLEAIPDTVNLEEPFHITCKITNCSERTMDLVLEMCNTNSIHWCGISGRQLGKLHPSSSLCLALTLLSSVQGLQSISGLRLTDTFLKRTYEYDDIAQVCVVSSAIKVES
UniProt Q6P1N9: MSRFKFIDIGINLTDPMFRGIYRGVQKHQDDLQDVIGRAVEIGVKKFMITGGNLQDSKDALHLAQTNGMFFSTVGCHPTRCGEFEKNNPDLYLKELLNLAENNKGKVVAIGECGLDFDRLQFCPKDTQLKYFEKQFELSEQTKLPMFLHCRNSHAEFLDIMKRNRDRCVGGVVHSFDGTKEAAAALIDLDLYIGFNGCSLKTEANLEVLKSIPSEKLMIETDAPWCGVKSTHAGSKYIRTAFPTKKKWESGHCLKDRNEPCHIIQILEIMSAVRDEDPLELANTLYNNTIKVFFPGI

Compound: Nc1ncnc2c1ncn2[C@@H]1O[C@H](COP(=O)(O)OP(=O)(O)NP(=O)(O)O)[C@@H](O)[C@H]1O [adenylyl imidodiphosphate]
Assay: NP40-soluble protein abundance relative to vehicle (solubility fold change) (ratio); higher = more soluble protein in presence of AMP-PNP
Outline: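 Eight concentrations, 0.1 to 10 mM, were tested on Jurkat crude lysate for 10 min at room temperature and then 3 min at 37 °C, in three independent experiments. The lysate was solubilised with 0.8% NP40 and benzonase, ultracentrifuged, and the supernatant TMT-labelled for LC-MS/MS. Each value is the fold change against the detergent-processed vehicle in its own replicate, from vsn-normalised intensities.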

Target	NP40-soluble protein abundance (concentration: 1mM)	NP40-soluble protein abundance (concentration: 2mM)	NP40-soluble protein abundance (concentration: 4mM)	NP40-soluble protein abundance (concentration: 6mM)	NP40-soluble protein abundance (concentration: 8mM)	NP40-soluble protein abundance (concentration: 10mM)
A6NG10 and related entries (UniProt Q969T9)	0.988 ± 0.061	1.01 ± 0.039	1.04 ± 0.064	1.05 ± 0.077	1.06 ± 0.068	1.08 ± 0.092
C9JDQ1 and related entries (UniProt Q13724)	0.979 ± 0.013	0.942 ± 0.12	1.01 ± 0.039	0.968 ± 0.014	1 ± 0.05	0.965 ± 0.032
C9J3D7 and related entries (UniProt Q9UKG9)	0.964 ± 0.042	0.9 ± 0.076	0.976 ± 0.029	0.9294 ± 0.0064	0.931 ± 0.022	0.93 ± 0.01
B7Z2L0 and related entries (UniProt Q9UHQ4)	1.04 ± 0.022	1.08 ± 0.067	1.02 ± 0.019	1 ± 0.044	0.969 ± 0.036	0.972 ± 0.024
B9EGA3 and related entries (UniProt Q92925)	0.971 ± 0.034	0.959 ± 0.03	0.984 ± 0.059	1.04 ± 0.032	1.06 ± 0.05	1.07 ± 0.14
B4DWF2 and related entries (UniProt Q9UKS7)	0.968 ± 0.033	0.945 ± 0.044	0.947 ± 0.033	0.939 ± 0.047	0.944 ± 0.058	0.968 ± 0.048
B1AKP1 and related entries (UniProt O60636)	1.04 ± 0.016	1.02 ± 0.019	1.034 ± 0.0076	1.02 ± 0.011	1.01 ± 0.029	1.01 ± 0.014
B2RA97 and related entries (UniProt Q9Y5N5)	1 ± 0.032	1 ± 0.014	0.982 ± 0.048	0.996 ± 0.042	1.016 ± 0.0014	1.01 ± 0.032
B4E3Q4 and related entries (UniProt Q9NZK5)	0.982 ± 0.022	0.941 ± 0.012	0.9915 ± 0.0066	0.982 ± 0.057	1.03 ± 0.044	0.969 ± 0.013
B8ZZN6 and related entries (UniProt P63165)	0.969 ± 0.055	1.04 ± 0.04	0.937 ± 0.055	0.968 ± 0.058	0.909 ± 0.047	0.93 ± 0.045
B4E0T2 and related entries (UniProt P50542)	1.01 ± 0.032	1.03 ± 0.021	0.985 ± 0.03	0.946 ± 0.029	0.943 ± 0.035	0.943 ± 0.029
C9JCW7 and related entries (UniProt Q9BVT8)	1 ± 0.027	1.01 ± 0.049	0.979 ± 0.032	1 ± 0.022	0.975 ± 0.05	0.967 ± 0.033
B4DLJ1 and related entries (UniProt Q15853)	1.03 ± 0.026	1.07 ± 0.067	1.04 ± 0.042	1.04 ± 0.028	1.03 ± 0.034	1.07 ± 0.032
B7Z3R9 and related entries (UniProt Q8TE99)	0.9713 ± 0.0074	0.948 ± 0.026	0.98772 ± 0.00046	0.9951 ± 0.0035	0.9382 ± 0.00078	0.9482 ± 0.0089
CCDC85C (UniProt A6NKD9)	0.9594 ± 0.0012	1.0044 ± 0.00019	0.953 ± 0.035	0.9849 ± 0.007	0.9793 ± 0.0043	0.9704 ± 0.0054
E5RFJ1 and related entries (UniProt Q96MF7)	1.01 ± 0.028	1.03 ± 0.06	1.02 ± 0.035	0.957 ± 0.033	0.989 ± 0.022	0.9706 ± 0.0092
B4DK77 and related entries (UniProt Q9H6K4)	1 ± 0.035	1.03 ± 0.11	0.993 ± 0.047	1.01 ± 0.046	1.04 ± 0.031	1 ± 0.1
D6RD47 and related entries (UniProt P62266)	0.977 ± 0.053	0.934 ± 0.072	0.901 ± 0.11	0.893 ± 0.094	0.87 ± 0.13	0.937 ± 0.21
UniProt B7ZLF3	1.03 ± 0.097	1.03 ± 0.036	0.998 ± 0.068	1.01 ± 0.029	1.05 ± 0.055	1.07 ± 0.046
A9X3U0 and related entries (UniProt Q96GF1)	1.02 ± 0.03	1.01 ± 0.046	0.971 ± 0.027	0.973 ± 0.048	0.974 ± 0.035	0.972 ± 0.054
C9JIF9 and related entries (UniProt P13798)	0.953 ± 0.027	0.88 ± 0.061	0.915 ± 0.0095	0.903 ± 0.014	0.909 ± 0.022	0.871 ± 0.04
C9J470 and related entries (UniProt Q15003)	0.988 ± 0.027	1.01 ± 0.014	0.987 ± 0.028	1.01 ± 0.029	0.943 ± 0.022	1.01 ± 0.038
B4DP61 and related entries (UniProt Q16637+E7EQZ4+B4DP61)	0.961 ± 0.093	1.03 ± 0.064	0.93 ± 0.077	1 ± 0.11	0.95 ± 0.053	0.993 ± 0.13

Target	NP40-soluble protein abundance (concentration: 1mM)	NP40-soluble protein abundance (concentration: 2mM)	NP40-soluble protein abundance (concentration: 4mM)	NP40-soluble protein abundance (concentration: 6mM)	NP40-soluble protein abundance (concentration: 8mM)	NP40-soluble protein abundance (concentration: 10mM)
B4DGU4 and related entries (UniProt P35222)	1 ± 0.052	0.9941 ± 0.0074	0.989 ± 0.021	0.981 ± 0.025	0.972 ± 0.024	0.966 ± 0.018
UniProt A8MWY0 and related entries	0.9848 ± 0.0075	1.01 ± 0.024	0.973 ± 0.012	0.96842 ± 0.00077	0.9736 ± 0.0021	0.96598 ± 0.00015
C9JKQ7 and related entries (UniProt P22102)	1 ± 0.018	0.954 ± 0.024	0.978 ± 0.021	1.01 ± 0.034	1.02 ± 0.037	0.9834 ± 0.0084
D6RHU3 and related entries (UniProt P55212)	0.968 ± 0.039	0.865 ± 0.11	0.936 ± 0.032	0.914 ± 0.047	0.949 ± 0.016	0.885 ± 0.043
B5MCU0 (UniProt Q9Y2K5)	0.998 ± 0.022	1 ± 0.024	1.01 ± 0.015	1.0031 ± 0.00071	0.9985 ± 0.0069	0.998 ± 0.0095
B4DDG0 and related entries (UniProt P41732+B4E171+B4DDG0)	0.949 ± 0.013	1 ± 0.092	0.9607 ± 0.0023	0.9534 ± 0.0021	0.907 ± 0.014	0.944 ± 0.049
A6NIW2 and related entries (UniProt Q5JSL3)	0.963 ± 0.03	0.916 ± 0.064	0.967 ± 0.027	0.919 ± 0.041	0.936 ± 0.013	0.892 ± 0.058
CNOT1 (UniProt A5YKK6)	0.96 ± 0.018	0.973 ± 0.035	1.04 ± 0.061	1.06 ± 0.11	1.08 ± 0.15	1.09 ± 0.16
B5MDE0 and related entries (UniProt Q96AA3)	0.987 ± 0.012	0.928 ± 0.036	0.956 ± 0.025	0.958 ± 0.043	0.979 ± 0.048	0.944 ± 0.025
GTPBP10 (UniProt A4D1E9)	1.02 ± 0.0089	1.05 ± 0.044	1.05 ± 0.031	1.05 ± 0.023	1.077 ± 0.0048	1.1 ± 0.019
A6NHB5 and related entries (UniProt Q14202)	1.01 ± 0.037	1 ± 0.026	1.06 ± 0.053	1.03 ± 0.036	1.03 ± 0.057	1.06 ± 0.045
B8ZZC8 and related entries (UniProt Q9NRN9)	0.998 ± 0.025	0.981 ± 0.056	1.025 ± 0.0036	0.9881 ± 0.0068	1.02 ± 0.057	0.997 ± 0.067
D6RBY0 and related entries (UniProt Q8TAC1)	0.9904 ± 0.0088	0.968 ± 0.033	0.974 ± 0.018	0.993 ± 0.02	1.01 ± 0.026	0.996 ± 0.0093
B1AH77 and related entries (UniProt P15153)	1.26 ± 0.38	0.938 ± 0.086	0.972 ± 0.072	0.972 ± 0.064	0.947 ± 0.0097	0.917 ± 0.027
C9JM79 and related entries (UniProt Q13427)	1.06 ± 0.061	1.11 ± 0.067	1.08 ± 0.082	1.08 ± 0.037	1.04 ± 0.1	1.12 ± 0.1
C9J6P4 and related entries (UniProt Q7Z2W4)	1.05 ± 0.04	1.09 ± 0.035	1.11 ± 0.038	1.15 ± 0.028	1.178 ± 0.0077	1.2 ± 0.014
UniProt A5PLN9 and related entries	0.966 ± 0.02	0.943 ± 0.019	0.963 ± 0.015	0.939 ± 0.017	0.973 ± 0.032	0.9378 ± 0.0061
C9J4Z3 and related entries (UniProt P61513)	1.02 ± 0.029	1.023 ± 0.0041	1.03 ± 0.014	1.03 ± 0.021	0.948 ± 0.019	1.03 ± 0.0093
A6PVU7 and related entries (UniProt Q9P2M7)	1.07 ± 0.019	1.1 ± 0.077	1.07 ± 0.027	1.033 ± 0.0023	1.02 ± 0.032	1.06 ± 0.04
D6RAJ6 and related entries (UniProt Q9UKT5)	1.01 ± 0.035	0.996 ± 0.032	0.986 ± 0.024	0.975 ± 0.026	0.983 ± 0.035	0.981 ± 0.045
E5RG17 and related entries (UniProt Q6P1N9)	1.01 ± 0.04	0.992 ± 0.045	1.01 ± 0.076	0.964 ± 0.03	0.96 ± 0.057	0.954 ± 0.073
PGP (UniProt A6NDG6)	0.975 ± 0.046	0.9608 ± 0.0072	0.992 ± 0.028	1.01 ± 0.056	1.04 ± 0.012	1.01 ± 0.028

Record cards, from the list above. Values in the order: NP40-soluble protein abundance (concentration: 1mM) | NP40-soluble protein abundance (concentration: 2mM) | NP40-soluble protein abundance (concentration: 4mM) | NP40-soluble protein abundance (concentration: 6mM) | NP40-soluble protein abundance (concentration: 8mM) | NP40-soluble protein abundance (concentration: 10mM)
E5RFJ1 and related entries (UniProt Q96MF7) in the list: 1.01 ± 0.028 | 1.03 ± 0.06 | 1.02 ± 0.035 | 0.957 ± 0.033 | 0.989 ± 0.022 | 0.9706 ± 0.0092
C9JM79 and related entries (UniProt Q13427) in the list: 1.06 ± 0.061 | 1.11 ± 0.067 | 1.08 ± 0.082 | 1.08 ± 0.037 | 1.04 ± 0.1 | 1.12 ± 0.1
C9JKQ7 and related entries (UniProt P22102) in the list: 1 ± 0.018 | 0.954 ± 0.024 | 0.978 ± 0.021 | 1.01 ± 0.034 | 1.02 ± 0.037 | 0.9834 ± 0.0084
